Data: the supplement of paper PMC10849652
The list shows a part of the results.

Amino acid sequences for entries named in this document (tags omitted). A change or cut given only in a name is not applied to a line headed by its entry.
UniProt Q14145, whole entry, looked up: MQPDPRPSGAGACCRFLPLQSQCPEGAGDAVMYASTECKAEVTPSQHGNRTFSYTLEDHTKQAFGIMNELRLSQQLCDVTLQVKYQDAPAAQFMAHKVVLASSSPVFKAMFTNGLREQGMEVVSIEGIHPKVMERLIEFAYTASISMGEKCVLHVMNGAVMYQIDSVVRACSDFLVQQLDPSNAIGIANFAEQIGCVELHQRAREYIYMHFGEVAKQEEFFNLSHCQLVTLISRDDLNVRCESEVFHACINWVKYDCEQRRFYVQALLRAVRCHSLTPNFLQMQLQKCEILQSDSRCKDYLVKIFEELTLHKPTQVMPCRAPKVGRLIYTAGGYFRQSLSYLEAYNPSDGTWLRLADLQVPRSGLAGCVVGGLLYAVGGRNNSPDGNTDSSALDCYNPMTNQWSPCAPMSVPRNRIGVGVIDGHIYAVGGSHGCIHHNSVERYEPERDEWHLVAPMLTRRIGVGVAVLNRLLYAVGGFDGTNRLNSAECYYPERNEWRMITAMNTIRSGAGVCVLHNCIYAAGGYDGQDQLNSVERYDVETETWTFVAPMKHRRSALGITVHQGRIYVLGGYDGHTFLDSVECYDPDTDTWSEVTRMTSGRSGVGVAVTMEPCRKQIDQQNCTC
UniProt Q8TBB5: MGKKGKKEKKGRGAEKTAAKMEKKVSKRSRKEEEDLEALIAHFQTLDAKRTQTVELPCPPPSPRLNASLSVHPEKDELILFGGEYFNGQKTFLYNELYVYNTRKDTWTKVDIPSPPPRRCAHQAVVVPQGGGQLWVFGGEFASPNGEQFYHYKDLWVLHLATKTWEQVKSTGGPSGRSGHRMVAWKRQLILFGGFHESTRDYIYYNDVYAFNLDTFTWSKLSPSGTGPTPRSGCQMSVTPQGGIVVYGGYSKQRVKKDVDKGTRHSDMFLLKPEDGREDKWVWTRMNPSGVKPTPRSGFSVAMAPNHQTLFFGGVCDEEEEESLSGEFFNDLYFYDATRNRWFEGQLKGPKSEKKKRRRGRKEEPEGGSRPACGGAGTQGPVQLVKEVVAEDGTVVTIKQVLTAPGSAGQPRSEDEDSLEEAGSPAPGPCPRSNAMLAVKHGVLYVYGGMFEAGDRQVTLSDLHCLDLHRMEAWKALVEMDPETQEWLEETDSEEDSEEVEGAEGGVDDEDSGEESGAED
UniProt Q8IVT5: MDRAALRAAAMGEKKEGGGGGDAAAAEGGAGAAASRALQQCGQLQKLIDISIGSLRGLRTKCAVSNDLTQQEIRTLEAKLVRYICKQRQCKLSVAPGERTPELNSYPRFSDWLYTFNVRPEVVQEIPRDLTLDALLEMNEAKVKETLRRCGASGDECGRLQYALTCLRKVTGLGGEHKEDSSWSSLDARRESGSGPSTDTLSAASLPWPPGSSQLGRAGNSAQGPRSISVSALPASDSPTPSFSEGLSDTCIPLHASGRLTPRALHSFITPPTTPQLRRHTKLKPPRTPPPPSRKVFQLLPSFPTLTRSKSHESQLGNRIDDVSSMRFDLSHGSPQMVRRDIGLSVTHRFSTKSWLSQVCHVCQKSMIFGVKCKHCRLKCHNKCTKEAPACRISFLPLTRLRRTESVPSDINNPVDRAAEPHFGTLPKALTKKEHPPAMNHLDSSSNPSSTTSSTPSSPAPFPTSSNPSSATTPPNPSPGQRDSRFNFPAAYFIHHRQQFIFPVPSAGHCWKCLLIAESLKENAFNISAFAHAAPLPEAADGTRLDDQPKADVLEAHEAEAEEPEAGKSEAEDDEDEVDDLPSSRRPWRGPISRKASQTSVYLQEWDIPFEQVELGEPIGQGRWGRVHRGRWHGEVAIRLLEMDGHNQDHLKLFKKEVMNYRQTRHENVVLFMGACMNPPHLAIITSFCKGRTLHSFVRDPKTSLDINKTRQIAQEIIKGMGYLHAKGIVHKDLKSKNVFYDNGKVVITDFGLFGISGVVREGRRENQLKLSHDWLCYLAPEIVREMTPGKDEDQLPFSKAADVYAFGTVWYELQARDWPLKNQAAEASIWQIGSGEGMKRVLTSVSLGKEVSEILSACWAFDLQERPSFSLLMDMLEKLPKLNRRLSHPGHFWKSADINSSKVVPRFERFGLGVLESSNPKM
UniProt Q9BQ90: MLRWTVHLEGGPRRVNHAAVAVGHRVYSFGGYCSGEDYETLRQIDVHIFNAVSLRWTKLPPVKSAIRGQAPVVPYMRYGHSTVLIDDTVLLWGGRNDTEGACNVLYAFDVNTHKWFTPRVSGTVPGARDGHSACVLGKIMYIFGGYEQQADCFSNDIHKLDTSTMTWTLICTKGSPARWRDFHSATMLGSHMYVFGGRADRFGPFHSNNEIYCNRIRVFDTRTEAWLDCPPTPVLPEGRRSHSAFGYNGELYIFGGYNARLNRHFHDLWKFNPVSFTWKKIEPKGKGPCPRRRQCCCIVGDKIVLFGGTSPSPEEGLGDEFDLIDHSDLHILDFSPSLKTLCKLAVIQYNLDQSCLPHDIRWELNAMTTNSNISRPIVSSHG
UniProt O43896: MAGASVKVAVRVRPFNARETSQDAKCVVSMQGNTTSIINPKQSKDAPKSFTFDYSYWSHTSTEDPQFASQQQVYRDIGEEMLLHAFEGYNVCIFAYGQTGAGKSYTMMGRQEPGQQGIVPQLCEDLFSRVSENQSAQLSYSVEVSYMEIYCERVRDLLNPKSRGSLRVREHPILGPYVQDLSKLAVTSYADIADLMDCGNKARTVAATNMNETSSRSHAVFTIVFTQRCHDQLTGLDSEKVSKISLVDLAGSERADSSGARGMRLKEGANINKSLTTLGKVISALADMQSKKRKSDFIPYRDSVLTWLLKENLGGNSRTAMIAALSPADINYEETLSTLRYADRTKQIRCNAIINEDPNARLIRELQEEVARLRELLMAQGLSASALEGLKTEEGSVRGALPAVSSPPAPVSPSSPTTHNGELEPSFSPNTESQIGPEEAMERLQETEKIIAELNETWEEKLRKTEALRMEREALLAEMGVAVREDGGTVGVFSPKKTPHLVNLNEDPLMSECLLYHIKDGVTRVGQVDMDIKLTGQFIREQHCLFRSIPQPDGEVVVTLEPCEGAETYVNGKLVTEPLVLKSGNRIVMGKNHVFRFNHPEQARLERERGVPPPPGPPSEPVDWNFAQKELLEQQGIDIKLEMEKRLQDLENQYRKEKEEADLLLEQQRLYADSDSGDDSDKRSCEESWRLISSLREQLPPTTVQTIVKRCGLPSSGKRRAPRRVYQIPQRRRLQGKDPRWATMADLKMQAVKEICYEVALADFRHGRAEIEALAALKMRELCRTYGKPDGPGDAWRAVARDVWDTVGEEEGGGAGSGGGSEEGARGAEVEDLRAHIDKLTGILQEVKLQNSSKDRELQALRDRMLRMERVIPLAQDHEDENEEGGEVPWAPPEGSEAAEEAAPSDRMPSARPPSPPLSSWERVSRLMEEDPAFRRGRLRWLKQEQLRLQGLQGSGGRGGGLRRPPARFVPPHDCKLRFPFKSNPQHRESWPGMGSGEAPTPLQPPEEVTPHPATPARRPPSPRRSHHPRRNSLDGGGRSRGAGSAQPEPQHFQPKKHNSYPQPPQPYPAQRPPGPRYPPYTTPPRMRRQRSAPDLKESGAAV
UniProt Q6PID8: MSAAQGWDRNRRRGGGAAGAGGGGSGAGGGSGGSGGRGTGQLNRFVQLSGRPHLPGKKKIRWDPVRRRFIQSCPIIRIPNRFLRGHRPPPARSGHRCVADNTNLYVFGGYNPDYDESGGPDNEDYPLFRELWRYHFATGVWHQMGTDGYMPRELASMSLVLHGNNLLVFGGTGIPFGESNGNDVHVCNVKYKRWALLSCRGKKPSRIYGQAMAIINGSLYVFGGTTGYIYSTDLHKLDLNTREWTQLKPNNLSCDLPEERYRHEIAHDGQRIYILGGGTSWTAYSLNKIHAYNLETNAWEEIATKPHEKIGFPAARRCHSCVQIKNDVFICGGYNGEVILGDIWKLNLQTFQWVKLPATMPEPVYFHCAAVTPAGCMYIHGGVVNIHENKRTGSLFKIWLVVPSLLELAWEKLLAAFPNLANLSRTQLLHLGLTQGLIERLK
UniProt Q9ULH0: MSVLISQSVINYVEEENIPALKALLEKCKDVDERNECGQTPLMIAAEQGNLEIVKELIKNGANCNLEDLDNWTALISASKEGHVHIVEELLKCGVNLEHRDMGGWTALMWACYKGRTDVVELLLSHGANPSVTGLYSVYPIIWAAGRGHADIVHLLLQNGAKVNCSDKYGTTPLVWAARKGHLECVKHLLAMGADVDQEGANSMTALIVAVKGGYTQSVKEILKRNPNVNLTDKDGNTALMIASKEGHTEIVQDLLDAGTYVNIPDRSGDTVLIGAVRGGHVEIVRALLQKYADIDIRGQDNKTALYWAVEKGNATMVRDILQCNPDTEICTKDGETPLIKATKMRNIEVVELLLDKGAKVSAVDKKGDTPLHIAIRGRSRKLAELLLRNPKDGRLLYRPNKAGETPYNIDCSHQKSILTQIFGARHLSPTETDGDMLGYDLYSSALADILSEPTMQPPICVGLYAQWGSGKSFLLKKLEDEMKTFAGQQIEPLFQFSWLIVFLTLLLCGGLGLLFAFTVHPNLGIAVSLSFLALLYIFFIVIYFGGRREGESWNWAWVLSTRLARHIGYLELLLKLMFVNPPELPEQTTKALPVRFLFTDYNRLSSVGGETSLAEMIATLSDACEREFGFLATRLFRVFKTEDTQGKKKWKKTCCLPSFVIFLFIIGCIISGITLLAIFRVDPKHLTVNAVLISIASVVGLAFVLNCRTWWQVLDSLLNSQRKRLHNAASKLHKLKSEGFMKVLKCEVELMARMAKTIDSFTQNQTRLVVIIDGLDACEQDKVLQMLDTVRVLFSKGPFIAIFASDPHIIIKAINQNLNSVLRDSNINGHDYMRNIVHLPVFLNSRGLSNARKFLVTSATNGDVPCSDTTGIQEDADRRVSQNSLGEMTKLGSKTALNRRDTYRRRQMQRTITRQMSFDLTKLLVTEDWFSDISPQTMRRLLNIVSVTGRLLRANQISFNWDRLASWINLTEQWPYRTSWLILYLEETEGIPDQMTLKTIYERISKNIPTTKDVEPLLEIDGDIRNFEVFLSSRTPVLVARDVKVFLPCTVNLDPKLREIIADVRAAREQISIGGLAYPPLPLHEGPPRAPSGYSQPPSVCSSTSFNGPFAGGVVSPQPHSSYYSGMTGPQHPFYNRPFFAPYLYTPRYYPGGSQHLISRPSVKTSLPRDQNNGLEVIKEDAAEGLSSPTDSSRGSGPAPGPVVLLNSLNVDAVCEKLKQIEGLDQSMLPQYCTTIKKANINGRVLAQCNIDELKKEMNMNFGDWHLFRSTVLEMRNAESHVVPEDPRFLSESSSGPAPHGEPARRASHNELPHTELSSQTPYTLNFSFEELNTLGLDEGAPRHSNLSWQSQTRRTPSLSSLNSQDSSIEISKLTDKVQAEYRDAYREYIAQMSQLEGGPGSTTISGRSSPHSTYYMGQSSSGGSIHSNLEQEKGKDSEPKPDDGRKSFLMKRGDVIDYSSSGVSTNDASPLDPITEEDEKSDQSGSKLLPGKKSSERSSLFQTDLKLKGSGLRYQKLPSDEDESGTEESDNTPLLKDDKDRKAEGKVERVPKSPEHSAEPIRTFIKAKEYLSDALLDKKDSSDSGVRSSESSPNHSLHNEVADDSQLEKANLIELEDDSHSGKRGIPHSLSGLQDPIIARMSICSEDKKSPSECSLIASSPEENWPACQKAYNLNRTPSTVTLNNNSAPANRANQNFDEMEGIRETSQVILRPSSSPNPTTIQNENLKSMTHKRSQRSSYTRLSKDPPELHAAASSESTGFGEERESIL
UniProt Q8NB78: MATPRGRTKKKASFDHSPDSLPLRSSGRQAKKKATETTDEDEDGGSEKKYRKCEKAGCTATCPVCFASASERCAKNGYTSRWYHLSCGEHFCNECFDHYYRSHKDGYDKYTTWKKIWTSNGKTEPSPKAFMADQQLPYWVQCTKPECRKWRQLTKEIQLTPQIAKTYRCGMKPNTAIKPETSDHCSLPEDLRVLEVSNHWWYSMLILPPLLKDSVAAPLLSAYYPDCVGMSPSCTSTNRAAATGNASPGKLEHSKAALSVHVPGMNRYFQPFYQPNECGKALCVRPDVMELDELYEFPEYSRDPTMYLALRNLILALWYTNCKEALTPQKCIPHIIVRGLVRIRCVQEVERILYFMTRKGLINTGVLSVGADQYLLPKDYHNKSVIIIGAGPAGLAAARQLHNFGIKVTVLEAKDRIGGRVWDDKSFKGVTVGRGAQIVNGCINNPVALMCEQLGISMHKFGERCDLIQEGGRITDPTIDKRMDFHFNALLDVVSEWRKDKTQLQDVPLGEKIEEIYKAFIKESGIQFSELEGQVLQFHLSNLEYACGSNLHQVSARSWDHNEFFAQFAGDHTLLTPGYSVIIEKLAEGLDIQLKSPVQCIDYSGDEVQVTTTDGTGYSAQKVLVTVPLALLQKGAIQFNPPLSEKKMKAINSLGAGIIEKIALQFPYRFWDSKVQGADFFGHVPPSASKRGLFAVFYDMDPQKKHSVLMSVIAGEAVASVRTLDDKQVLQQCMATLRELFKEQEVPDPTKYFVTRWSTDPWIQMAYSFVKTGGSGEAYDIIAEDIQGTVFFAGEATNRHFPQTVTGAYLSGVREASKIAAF

Experiments:
Test in all cases: log2 fold change, soluble protein after heating vs DMSO (PISA); higher = thermal stabilisation; K562 cells, 10 uM, 30 min; active = over 0.2 and 3.5 SD of the protein, either way, in both replicates (recomputed)
[1] = compound: C1=CC=C(C=C1)[C@H](COC2=CC3=C(C=C2)NC(=O)N3)NC(=O)C4=CC=CN(C4=O)CC5=CC(=C(C=C5)F)F
In short: (§1)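 K562 cells at 2×10^6 cells/mL were treated with 10 μM compound for 30 min. Aliquots were heated for 3 min across 48°C-58°C, pooled, and extracted in PBS with 0.5% NP-40 at 4°C; soluble protein was the supernatant after 21,000xg for 90 min. Soluble protein was quantified by TMTpro 16plex LC-MS/MS with channel sums equalised, and reported as log2 fold change in thermal stability against DMSO controls, with values from duplicates.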

[2] = compound: CC1=C(SC2=C1C(=N[C@H](C3=NN=C(N32)C)CC(=O)N)C4=CC=C(C=C4)Cl)C
In short: as §1

[3] = compound: CC1=C2C(=CC=C1)N=C(N(C2=O)C3=CC=CC=C3C)CN4C=NC5=C(N=CN=C54)N
In short: as §1

[4] = compound: c1ccc([C@@H]2C[C@H]2NC2CCNCC2)cc1
In short: as §1

[5] = compound: Cc1sc2c(c1C)C(c1ccc(Cl)cc1)=N[C@@H](CC(=O)OC(C)(C)C)c1nnc(C)n1-2
In short: as §1

Measured: log2 fold change

KRIT1 (UniProt O00522)
inactive: [1] -0.586 | [2] 0.027 | [3] 0.162 | [4] -0.239

KIAA0930 isoform 2 (UniProt Q6ICG6)
inactive: [1] -0.093 | [2] -0.043 | [3] 0.112 | [4] 0.286

KPNA2 (UniProt P52292)
inactive: [1] -0.015 | [2] -0.21 | [3] -0.124 | [5] 0.167 | [4] 0.028

KCNH2 (UniProt Q12809)
inactive: [1] 0.072 | [2] 0.01 | [3] 0.034 | [5] 0.148 | [4] 0.029

KEAP1 (UniProt Q14145)
inactive: [1] 0.015 | [2] -0.001 | [3] 0.007 | [5] 0.021 | [4] 0.001

KLHL42 (UniProt Q9P2K6)
inactive: [1] -0.484 | [2] -0.051 | [5] 0 | [4] 0.014

KLHDC4 (UniProt Q8TBB5)
inactive: [1] 0.048 | [2] -0.074 | [3] -0.165 | [5] 0.084 | [4] -0.047

KSR1 (UniProt Q8IVT5)
inactive: [1] -0.044 | [2] 0.033 | [3] 0.137 | [5] 0.044 | [4] 0.018

KIF3A (UniProt Q9Y496)
inactive: [1] 0.027 | [2] 0.039 | [3] 0.054 | [5] 0.049 | [4] 0.002

KIF3B (UniProt O15066)
inactive: [1] -0.068 | [2] -0.014 | [3] 0.028 | [5] 0.09 | [4] -0.054

KIAA0100 (UniProt Q14667)
inactive: [1] -0.102 | [2] 0.072 | [3] -0.031 | [5] 0.036 | [4] 0.023

KLHDC3 (UniProt Q9BQ90)
inactive: [1] 0.063 | [2] 0.133 | [3] -0.066 | [5] -0.039 | [4] -0.022

KNOP1 (UniProt Q1ED39)
inactive: [1] 0.142 | [2] 0.013 | [3] 0.043 | [5] 0.228 | [4] -0.068

KPNA6 (UniProt O60684)
inactive: [1] -0.017 | [2] -0.046 | [3] 0.093 | [5] 0.105 | [4] 0.07

KBTBD4 isoform 2 (UniProt Q9NVX7)
inactive: [1] 0.11 | [2] 0.091 | [3] 0.099 | [5] -0.045 | [4] 0.005

KIF5B (UniProt P33176)
inactive: [1] -0.039 | [2] 0.06 | [3] 0.039 | [5] 0.001 | [4] -0.041

KCTD5 (UniProt Q9NXV2)
inactive: [1] -0.033 | [2] 0.005 | [3] 0.065 | [5] -0.023 | [4] -0.018

KDM5D isoform 3 (UniProt Q9BY66)
inactive: [1] 0.2 | [2] 0.086 | [3] 0.102 | [5] -0.022 | [4] 0.037

KNG1 (UniProt P01042)
inactive: [1] -0.055 | [2] 0.018 | [3] 0.14 | [5] 0.016 | [4] -0.014

KIF1C (UniProt O43896)
inactive: [1] -0.055 | [2] 0.02 | [4] -0.154

KLHDC10 (UniProt Q6PID8)
inactive: [5] -0.062

8 neighbouring records from above, for reference:
KPNA6 (UniProt O60684)
inactive: [1] -0.017 | [2] -0.046 | [3] 0.093 | [5] 0.105 | [4] 0.07

KBTBD4 isoform 2 (UniProt Q9NVX7)
inactive: [1] 0.11 | [2] 0.091 | [3] 0.099 | [5] -0.045 | [4] 0.005

KIF5B (UniProt P33176)
inactive: [1] -0.039 | [2] 0.06 | [3] 0.039 | [5] 0.001 | [4] -0.041

KCTD5 (UniProt Q9NXV2)
inactive: [1] -0.033 | [2] 0.005 | [3] 0.065 | [5] -0.023 | [4] -0.018

KDM5D isoform 3 (UniProt Q9BY66)
inactive: [1] 0.2 | [2] 0.086 | [3] 0.102 | [5] -0.022 | [4] 0.037

KNG1 (UniProt P01042)
inactive: [1] -0.055 | [2] 0.018 | [3] 0.14 | [5] 0.016 | [4] -0.014

KIF1C (UniProt O43896)
inactive: [1] -0.055 | [2] 0.02 | [4] -0.154

KLHDC10 (UniProt Q6PID8)
inactive: [5] -0.062

Going on with the list.

KALRN (UniProt O60229)
inactive: [1] 0.063 | [2] 0.028 | [4] -0.174

KIDINS220 isoform 2 (UniProt Q9ULH0)
inactive: [1] 0.057 | [3] 0.221 | [5] 0.145

KIF13A isoform 4 (UniProt Q9H1H9)
inactive: [2] 0.031 | [4] -0.367

KLHL20 (UniProt Q9Y2M5)
inactive: [3] -0.048 | [5] -0.027

KDM1B (UniProt Q8NB78)
inactive: [1] 0.028 | [5] -0.147

KIFC1 (UniProt Q9BW19)
inactive: [2] -0.1 | [4] 0.135

KLF16 (UniProt Q9BXK1)
inactive: [1] -0.167 | [3] -0.302 | [5] 0.023

KDELR1 (UniProt P24390)
inactive: [1] 0.069 | [5] 0.207
